Test: Therapeutic index from ED50 (cotton pellet granuloma) and TED40 (thymus inhibition)
Assay type: in vivo, rat
Conditions: ratio of the relative potency for the ED50 to the relative potency for the TED40; hydrocortisone 17-butyrate = 1

Structure (SMILES)	Therapeutic Index
CC(C)OC(=O)O[C@]1(C(=O)OCCl)CC[C@H]2[C@@H]3CCC4=CC(=O)CC[C@]4(C)[C@H]3[C@@H](O)C[C@@]21C [chloromethyl 11β-hydroxy-17α-isopropoxycarbonyloxyandrost-4-en-3-one-17β-carboxylate]	24
CCOC(=O)O[C@]1(C(=O)OCCl)[C@H](C)C[C@H]2[C@@H]3CCC4=CC(=O)C=C[C@]4(C)[C@@]3(F)[C@@H](O)C[C@@]21C [chloromethyl 17α-ethoxycarbonyloxy-9α-fluoro-11β-hydroxy-16α-methylandrosta-1,4-dien-3-one-17β-carboxylate]	18000
COC(=O)O[C@]1(C(=O)OCCl)[C@H](C)C[C@H]2[C@@H]3CCC4=CC(=O)C=C[C@]4(C)[C@@]3(F)[C@@H](O)C[C@@]21C [chloromethyl 9α-fluoro-11β-hydroxy-17α-methoxycarbonyloxy-16α-methylandrosta-1,4-dien-3-one-17β-carboxylate]	7270
CC(C)OC(=O)O[C@]1(C(=O)OCCl)CC[C@H]2[C@@H]3CCC4=CC(=O)C=C[C@]4(C)[C@H]3[C@@H](O)C[C@@]21C [chloromethyl 11β-hydroxy-17α-isopropoxycarbonyloxy-androsta-1,4-dien-3-one-17β-carboxylate]	48
CCCCC(=O)O[C@]1(C(=O)CO)[C@@H](C)C[C@H]2[C@@H]3CCC4=CC(=O)C=C[C@]4(C)[C@@]3(F)[C@@H](O)C[C@@]21C [Betamethasone 17-valerate, reference compound]	1

From patent publication US6610675B1 (priority 1980, dated 2003)
